PubChem BioAssay AID1159578 – Peter MacCallum Cancer Centre – 2015

Aim: 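siRNA pools altering how lymphatic endothelial cells close a scratch wound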 (primary screen)
Cells: human lymphatic endothelial cells
Knock-down reagent: siRNA pool against human genes, 40 nM
Duration: 48 h after transfection
Measurement: 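High-content imaging of dye-stained cells in a scratch assay measures filled wound area and nuclei per well; duplicate means given as ratio to mock and robust z-score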
Direction: migration robust z-score: higher = faster migration into the scratch; migration relative to mock: higher = more scratch area covered than mock; nuclei per well: higher = more cells in the well
Hit rule: 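Pools averaging fewer than 3300 nuclei are never called; remaining pools count as changed when migration robust z lies outside -2 to 2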
Meaning of the calls: active = migration changed; inactive = no migration change, or too few cells
In all, the deposit lists about 18,000 reagents; below is a part drawn at random. About 1,030 of them (5.7%) were called active. 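Inactive calls also include pools with fewer than 3300 nuclei, whose migration was not assessed.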 The raw values are shown without normalisation. Entries without a mark were called inactive. No sequences are given here.

gene symbol | migration robust z-score | migration class with cell-count check | migration relative to mock | nuclei per well, duplicate mean
STMN2 | -0.46 | migration z between -2 and 2; enough cells | 0.76 | 5692
BEST2 | 0 | migration z between -2 and 2; enough cells | 0.88 | 6622
NAV2 | -1.39 | migration z between -2 and 2; enough cells | 0.52 | 4641
CPLANE2 | 0.45 | migration z between -2 and 2; enough cells | 1.01 | 6012
SELENOV | -0.86 | migration z between -2 and 2; enough cells | 0.66 | 4933
ZNF813 | 1.52 | migration z between -2 and 2; enough cells | 1.27 | 5662
RTL4 | 1.34 | migration z between -2 and 2; enough cells | 1.23 | 6205
SSX4B | 0.08 | migration z between -2 and 2; enough cells | 0.91 | 5402
GOLGA2P5 | 0.32 | migration z between -2 and 2; enough cells | 0.96 | 5982
PSMC4 | -1.52 | migration z between -2 and 2; enough cells | 0.5 | 6100
ESF1 | -1.07 | migration z between -2 and 2; enough cells | 0.61 | 6139
AARS1 | -1.77 | migration z between -2 and 2; enough cells | 0.46 | 5814
TMEM88 | -0.66 | migration z between -2 and 2; enough cells | 0.71 | 6481
RHOXF2 | 0.57 | migration z between -2 and 2; enough cells | 1.04 | 4968
ZDHHC24 | -1.4 | migration z between -2 and 2; enough cells | 0.52 | 6186
GPR78 | 0 | migration z between -2 and 2; enough cells | 0.8 | 6753
EBF1 | 1.17 | migration z between -2 and 2; enough cells | 1.19 | 6341
NR2E1 | -0.15 | migration z between -2 and 2; enough cells | 0.77 | 7774
H3C4 | 0.01 | migration z between -2 and 2; enough cells | 0.89 | 6092
SERPINB8 | 1.43 | migration z between -2 and 2; enough cells | 1.25 | 7232
CLPSL1 | -0.43 | migration z between -2 and 2; enough cells | 0.77 | 5046
OTUD6B | 0.03 | migration z between -2 and 2; enough cells | 0.9 | 6443
OR1G1 | 1.15 | migration z between -2 and 2; enough cells | 1.19 | 7751
OR51T1 | -0.26 | migration z between -2 and 2; enough cells | 0.82 | 5855
SOX21 | 0.31 | migration z between -2 and 2; enough cells | 0.96 | 5492
KANSL1 | -2.4 (active) | migration z below -2; enough cells | 0.26 | 4422

In a second layout: 4 of the entries above.
gene symbol	migration robust z-score	migration class with cell-count check	migration relative to mock	nuclei per well, duplicate mean
GPR78	0	migration z between -2 and 2; enough cells	0.8	6753
EBF1	1.17	migration z between -2 and 2; enough cells	1.19	6341
NR2E1	-0.15	migration z between -2 and 2; enough cells	0.77	7774
H3C4	0.01	migration z between -2 and 2; enough cells	0.89	6092

The results go on:
gene symbol | migration robust z-score | migration class with cell-count check | migration relative to mock | nuclei per well, duplicate mean
IYD | 0.88 | migration z between -2 and 2; enough cells | 0.98 | 5980
GDI2 | -0.03 | migration z between -2 and 2; enough cells | 0.8 | 6302
EEF1A1 | -0.47 | migration z between -2 and 2; enough cells | 0.72 | 4886
LTBP1 | -0.54 | migration z between -2 and 2; enough cells | 0.74 | 6552
EBNA1BP2 | -0.6 | migration z between -2 and 2; enough cells | 0.73 | 4374
IFT172 | -1.38 | migration z between -2 and 2; enough cells | 0.52 | 5766
MAGEA8 | 0.74 | migration z between -2 and 2; enough cells | 1.07 | 8138
UQCRH | 0.52 | migration z between -2 and 2; enough cells | 0.9 | 6438
TACR2 | -0.57 | migration z between -2 and 2; enough cells | 0.7 | 7422
C4orf51 | 1.14 | migration z between -2 and 2; enough cells | 1.17 | 5354
GRXCR1 | 0.68 | migration z between -2 and 2; enough cells | 1.06 | 5618
CNGA2 | -0.36 | migration z between -2 and 2; enough cells | 0.74 | 5956
VN1R5 | 0.78 | migration z between -2 and 2; enough cells | 0.96 | 6892
B3GALT2 | -0.02 | migration z between -2 and 2; enough cells | 0.8 | 4986
RAD21 | -2.54 (active) | migration z below -2; enough cells | 0.32 | 5736
C1orf226 | -0.52 | migration z between -2 and 2; enough cells | 0.75 | 5658
ZDHHC4 | 0.31 | migration z between -2 and 2; enough cells | 0.96 | 4626
IL2 | 0.68 | migration z between -2 and 2; enough cells | 1.06 | 6222
HIRIP3 | -1.49 | migration z between -2 and 2; enough cells | 0.5 | 4588
KDSR | 0.15 | migration z between -2 and 2; enough cells | 0.84 | 5831
FBXO36 | -1.45 | migration z between -2 and 2; enough cells | 0.53 | 5739
LKAAEAR1 | -0.86 | migration z between -2 and 2; enough cells | 0.64 | 4642
MGRN1 | 1.38 | migration z between -2 and 2; enough cells | 1.07 | 5532
PYCR1 | -1.08 | migration z between -2 and 2; enough cells | 0.6 | 5192
VASP | 0.54 | migration z between -2 and 2; enough cells | 1.03 | 6290
TP53AIP1 | -1.36 | migration z between -2 and 2; enough cells | 0.53 | 4900
TDG | 0.02 | migration z between -2 and 2; enough cells | 0.81 | 4470
LINC01600 | 0.6 | migration z between -2 and 2; enough cells | 1.04 | 4426
DAPK3 | -0.52 | migration z between -2 and 2; enough cells | 0.7 | 4579
MRNIP | -2.02 (active) | migration z below -2; enough cells | 0.36 | 4150
OR6B3 | -0.12 | migration z between -2 and 2; enough cells | 0.85 | 5639
